Reference: the supplement of paper PMC10849652
The other results are listed elsewhere or left out.

By UniProt entry, the sequences of proteins in these tests, tags left out. Where a name states a change or a piece, a line headed by the entry shows the natural chain unless it says otherwise.
UniProt P11086: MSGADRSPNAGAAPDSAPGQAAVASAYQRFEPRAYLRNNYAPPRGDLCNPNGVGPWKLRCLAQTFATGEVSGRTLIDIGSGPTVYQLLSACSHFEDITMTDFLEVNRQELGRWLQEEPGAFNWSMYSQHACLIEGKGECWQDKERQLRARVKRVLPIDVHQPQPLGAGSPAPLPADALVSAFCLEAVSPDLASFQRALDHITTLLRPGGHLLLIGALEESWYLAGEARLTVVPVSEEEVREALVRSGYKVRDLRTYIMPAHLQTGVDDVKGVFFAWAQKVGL
UniProt P05423: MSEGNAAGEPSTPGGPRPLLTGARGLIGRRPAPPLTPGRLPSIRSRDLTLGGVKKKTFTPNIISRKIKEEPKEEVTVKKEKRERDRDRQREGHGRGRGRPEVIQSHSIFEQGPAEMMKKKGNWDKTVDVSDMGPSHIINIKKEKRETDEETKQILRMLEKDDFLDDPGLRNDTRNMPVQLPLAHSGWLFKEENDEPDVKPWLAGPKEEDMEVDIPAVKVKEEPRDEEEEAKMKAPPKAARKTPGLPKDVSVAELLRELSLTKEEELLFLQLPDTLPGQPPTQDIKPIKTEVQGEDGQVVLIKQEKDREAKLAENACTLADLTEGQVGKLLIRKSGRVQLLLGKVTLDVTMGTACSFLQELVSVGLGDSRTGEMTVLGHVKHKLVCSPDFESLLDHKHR
UniProt Q68D20: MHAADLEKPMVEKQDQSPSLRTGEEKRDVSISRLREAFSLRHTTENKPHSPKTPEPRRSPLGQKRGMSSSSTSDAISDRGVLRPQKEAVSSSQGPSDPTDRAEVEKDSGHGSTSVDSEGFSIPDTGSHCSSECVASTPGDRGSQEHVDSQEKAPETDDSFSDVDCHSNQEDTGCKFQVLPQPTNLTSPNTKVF
UniProt O75688: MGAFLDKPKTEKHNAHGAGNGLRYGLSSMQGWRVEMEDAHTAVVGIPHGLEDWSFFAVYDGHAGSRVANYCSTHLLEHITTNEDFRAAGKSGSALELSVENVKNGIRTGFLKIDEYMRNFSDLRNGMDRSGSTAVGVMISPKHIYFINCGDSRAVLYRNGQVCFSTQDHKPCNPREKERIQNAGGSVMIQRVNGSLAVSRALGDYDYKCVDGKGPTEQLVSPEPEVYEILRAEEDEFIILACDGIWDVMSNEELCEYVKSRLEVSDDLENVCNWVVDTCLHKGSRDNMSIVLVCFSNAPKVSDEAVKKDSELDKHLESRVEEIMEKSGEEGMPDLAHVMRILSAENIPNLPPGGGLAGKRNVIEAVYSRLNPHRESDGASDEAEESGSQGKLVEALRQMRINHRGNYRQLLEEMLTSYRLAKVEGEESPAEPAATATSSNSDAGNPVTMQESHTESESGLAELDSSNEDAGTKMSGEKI
UniProt Q9Y535: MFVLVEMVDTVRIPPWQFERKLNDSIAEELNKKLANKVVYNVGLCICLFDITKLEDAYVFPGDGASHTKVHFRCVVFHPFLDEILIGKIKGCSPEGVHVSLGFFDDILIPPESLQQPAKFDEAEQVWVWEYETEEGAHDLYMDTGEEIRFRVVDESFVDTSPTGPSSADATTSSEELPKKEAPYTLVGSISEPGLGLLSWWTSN
UniProt Q15126: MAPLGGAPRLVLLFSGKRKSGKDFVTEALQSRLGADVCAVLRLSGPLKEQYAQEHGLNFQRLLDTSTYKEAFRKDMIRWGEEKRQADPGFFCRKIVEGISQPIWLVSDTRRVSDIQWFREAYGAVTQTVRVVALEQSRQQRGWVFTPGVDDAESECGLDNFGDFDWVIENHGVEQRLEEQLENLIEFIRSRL
UniProt Q9NW61: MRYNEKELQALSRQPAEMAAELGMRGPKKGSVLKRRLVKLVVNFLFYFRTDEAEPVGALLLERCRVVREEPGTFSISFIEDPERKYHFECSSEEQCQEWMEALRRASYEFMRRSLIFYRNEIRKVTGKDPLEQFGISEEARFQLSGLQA
UniProt P53350, whole entry, looked up: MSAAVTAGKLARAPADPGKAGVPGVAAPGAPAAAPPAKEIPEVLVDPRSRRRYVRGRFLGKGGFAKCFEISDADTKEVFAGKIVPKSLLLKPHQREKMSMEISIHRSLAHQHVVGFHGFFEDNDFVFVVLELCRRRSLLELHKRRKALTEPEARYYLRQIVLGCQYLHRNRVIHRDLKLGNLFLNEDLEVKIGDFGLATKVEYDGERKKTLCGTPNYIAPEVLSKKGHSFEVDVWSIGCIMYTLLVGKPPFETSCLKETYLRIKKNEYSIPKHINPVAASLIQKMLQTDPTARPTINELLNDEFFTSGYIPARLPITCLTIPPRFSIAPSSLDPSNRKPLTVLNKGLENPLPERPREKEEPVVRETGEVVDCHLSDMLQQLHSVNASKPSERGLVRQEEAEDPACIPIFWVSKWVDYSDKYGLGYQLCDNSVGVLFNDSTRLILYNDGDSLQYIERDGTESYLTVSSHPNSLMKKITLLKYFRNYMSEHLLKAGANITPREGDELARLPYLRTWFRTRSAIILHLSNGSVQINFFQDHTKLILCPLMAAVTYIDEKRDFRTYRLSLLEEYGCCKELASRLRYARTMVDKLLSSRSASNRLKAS
UniProt Q8NAT1: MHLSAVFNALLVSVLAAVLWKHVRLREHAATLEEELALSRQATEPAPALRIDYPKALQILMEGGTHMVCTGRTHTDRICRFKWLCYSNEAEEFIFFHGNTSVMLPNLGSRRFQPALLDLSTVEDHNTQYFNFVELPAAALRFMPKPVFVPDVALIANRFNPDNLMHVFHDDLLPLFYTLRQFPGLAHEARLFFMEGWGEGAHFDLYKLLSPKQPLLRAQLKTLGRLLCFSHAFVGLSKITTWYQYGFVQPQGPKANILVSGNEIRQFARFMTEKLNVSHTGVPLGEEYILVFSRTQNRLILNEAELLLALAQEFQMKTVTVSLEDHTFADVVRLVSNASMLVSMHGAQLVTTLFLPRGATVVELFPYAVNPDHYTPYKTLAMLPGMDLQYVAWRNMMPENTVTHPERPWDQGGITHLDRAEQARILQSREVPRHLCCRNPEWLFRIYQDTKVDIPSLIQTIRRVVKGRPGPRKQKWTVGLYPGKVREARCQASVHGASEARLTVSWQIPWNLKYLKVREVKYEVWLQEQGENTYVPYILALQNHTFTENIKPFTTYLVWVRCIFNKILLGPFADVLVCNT
UniProt A8CG34, whole entry, looked up: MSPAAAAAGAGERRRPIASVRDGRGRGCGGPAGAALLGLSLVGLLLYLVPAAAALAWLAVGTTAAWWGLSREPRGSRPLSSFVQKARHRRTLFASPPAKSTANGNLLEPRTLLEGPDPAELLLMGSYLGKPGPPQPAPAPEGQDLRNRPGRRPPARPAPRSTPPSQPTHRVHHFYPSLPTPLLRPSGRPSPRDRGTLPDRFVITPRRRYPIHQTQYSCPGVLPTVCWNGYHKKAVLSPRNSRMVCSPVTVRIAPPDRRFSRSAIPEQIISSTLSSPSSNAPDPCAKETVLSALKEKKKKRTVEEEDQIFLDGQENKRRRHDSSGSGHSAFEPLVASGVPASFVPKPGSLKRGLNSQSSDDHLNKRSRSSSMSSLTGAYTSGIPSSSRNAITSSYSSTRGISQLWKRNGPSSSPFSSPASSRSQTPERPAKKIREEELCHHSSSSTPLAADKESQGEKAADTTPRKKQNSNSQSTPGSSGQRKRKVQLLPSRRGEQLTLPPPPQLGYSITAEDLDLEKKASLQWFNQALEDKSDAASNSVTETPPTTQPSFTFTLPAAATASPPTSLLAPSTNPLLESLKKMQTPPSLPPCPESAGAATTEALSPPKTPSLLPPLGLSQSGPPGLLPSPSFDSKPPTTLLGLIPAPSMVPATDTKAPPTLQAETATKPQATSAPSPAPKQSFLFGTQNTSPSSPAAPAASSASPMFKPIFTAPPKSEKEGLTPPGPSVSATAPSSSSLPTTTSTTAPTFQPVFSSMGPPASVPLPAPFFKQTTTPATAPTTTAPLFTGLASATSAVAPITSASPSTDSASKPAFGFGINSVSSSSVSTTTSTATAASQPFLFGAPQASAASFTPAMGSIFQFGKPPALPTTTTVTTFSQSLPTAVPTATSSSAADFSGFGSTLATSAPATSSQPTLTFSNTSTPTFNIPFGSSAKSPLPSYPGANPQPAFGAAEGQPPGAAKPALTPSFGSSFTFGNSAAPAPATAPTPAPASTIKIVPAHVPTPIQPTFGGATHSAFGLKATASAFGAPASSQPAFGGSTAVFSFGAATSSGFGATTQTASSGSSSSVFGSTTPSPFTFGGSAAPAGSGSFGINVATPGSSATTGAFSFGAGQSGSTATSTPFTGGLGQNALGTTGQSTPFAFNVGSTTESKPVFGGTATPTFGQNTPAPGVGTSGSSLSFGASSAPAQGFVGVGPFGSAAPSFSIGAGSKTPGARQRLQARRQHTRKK
UniProt Q07864, whole entry, looked up: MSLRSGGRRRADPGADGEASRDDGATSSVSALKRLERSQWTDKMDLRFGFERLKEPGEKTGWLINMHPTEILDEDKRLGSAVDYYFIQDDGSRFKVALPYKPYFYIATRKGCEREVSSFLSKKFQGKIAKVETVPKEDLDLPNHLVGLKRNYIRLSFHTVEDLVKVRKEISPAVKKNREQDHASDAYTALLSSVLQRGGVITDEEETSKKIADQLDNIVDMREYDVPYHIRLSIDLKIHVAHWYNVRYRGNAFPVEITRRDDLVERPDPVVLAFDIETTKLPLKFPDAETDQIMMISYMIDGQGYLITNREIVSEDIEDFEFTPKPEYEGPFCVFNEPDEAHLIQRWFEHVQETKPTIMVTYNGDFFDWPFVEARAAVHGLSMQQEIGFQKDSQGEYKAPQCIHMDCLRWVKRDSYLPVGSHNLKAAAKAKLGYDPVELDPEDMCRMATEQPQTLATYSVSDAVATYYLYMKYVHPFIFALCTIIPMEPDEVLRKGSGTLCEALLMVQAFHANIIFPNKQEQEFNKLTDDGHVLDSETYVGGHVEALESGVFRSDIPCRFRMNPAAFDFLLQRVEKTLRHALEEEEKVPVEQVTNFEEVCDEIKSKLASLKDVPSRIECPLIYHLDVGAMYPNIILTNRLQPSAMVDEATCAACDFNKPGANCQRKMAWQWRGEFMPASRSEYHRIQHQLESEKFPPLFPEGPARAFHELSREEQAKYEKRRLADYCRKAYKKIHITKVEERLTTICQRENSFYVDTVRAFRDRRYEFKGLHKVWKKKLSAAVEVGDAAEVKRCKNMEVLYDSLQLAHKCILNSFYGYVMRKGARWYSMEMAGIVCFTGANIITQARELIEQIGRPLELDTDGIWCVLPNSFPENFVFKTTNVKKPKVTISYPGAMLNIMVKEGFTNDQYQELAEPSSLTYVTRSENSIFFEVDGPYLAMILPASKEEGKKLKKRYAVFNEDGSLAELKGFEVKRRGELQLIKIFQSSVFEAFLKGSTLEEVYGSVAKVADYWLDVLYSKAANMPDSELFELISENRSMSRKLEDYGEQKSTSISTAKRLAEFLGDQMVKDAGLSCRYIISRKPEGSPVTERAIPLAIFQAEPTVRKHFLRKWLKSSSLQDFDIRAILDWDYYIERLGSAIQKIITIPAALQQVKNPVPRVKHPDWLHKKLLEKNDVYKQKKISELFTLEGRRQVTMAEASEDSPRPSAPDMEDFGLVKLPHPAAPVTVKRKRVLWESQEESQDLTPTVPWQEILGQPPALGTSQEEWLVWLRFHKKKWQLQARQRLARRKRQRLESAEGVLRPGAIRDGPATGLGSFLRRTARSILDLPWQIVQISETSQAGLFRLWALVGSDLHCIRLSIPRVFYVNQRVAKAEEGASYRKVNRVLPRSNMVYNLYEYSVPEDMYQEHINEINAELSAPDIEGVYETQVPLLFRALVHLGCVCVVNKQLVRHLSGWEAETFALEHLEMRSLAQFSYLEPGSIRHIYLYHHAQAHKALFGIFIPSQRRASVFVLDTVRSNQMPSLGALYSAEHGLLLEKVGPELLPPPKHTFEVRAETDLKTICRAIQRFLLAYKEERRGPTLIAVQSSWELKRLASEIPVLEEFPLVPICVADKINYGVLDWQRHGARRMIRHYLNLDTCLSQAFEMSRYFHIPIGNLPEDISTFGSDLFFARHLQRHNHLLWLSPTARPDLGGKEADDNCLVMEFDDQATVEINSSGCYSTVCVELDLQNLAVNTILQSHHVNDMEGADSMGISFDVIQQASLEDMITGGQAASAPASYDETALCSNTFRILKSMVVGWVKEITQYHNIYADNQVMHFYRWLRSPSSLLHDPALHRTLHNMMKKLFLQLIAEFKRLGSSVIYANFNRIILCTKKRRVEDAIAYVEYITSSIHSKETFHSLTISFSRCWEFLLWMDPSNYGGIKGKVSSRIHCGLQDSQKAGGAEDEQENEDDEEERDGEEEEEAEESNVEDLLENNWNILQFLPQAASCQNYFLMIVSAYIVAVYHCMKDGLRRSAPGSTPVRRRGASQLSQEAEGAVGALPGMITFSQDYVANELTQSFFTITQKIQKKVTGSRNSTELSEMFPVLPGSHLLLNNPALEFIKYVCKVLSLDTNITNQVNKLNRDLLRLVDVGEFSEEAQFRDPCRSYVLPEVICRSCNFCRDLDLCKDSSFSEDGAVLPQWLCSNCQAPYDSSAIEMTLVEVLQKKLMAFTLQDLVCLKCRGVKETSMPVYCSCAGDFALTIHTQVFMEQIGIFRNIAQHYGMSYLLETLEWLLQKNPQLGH

Key:
Test in all cases: log2 fold change, soluble protein after heating vs DMSO (PISA); higher = thermal stabilisation; K562 cells, 10 uM, 30 min; active = over 0.2 and 3.5 SD of the protein, either way, in both replicates (recomputed)
[1] = compound: CC[C@@H]1C(=O)N(C)c2cnc(Nc3ccc(C(=O)N[C@H]4CC[C@H](N5CCN(CC6CC6)CC5)CC4)cc3OC)nc2N1C(C)C [volasertib]
Outline: (§1)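 K562 cells at 2×10^6 cells/mL were treated with 10 μM compound for 30 min. Aliquots were heated for 3 min across 48°C-58°C, pooled, and extracted in PBS with 0.5% NP-40 at 4°C; soluble protein was the supernatant after 21,000xg for 90 min. Soluble protein was quantified by TMTpro 16plex LC-MS/MS with channel sums equalised, and reported as log2 fold change in thermal stability against DMSO controls, with values from duplicates.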

[2] = compound: CCn1c(C(=O)N(C2CC2)C2CC2)cc2c3c(ncn3C)c(Nc3cc(C)n(C)n3)nc21
Outline: as §1

[3] = compound: CN1C2=C(C3=C1C(=O)N(N=C3)CC4=CC(=CC=C4)N)SC(=C2)S(=O)C
Outline: as §1

[4] = compound: CN1CCN(CCOc2cc(OC3CCOCC3)c3c(Nc4c(Cl)ccc5c4OCO5)ncnc3c2)CC1 [saracatinib]
Outline: as §1

[5] = compound: CN1CCN(c2nc(C3=C(c4c[nH]c5ccccc45)C(=O)NC3=O)c3ccccc3n2)CC1 [sotrastaurin]
Outline: as §1

[6] = compound: CN1CC[C@H](c2c(O)cc(O)c3c(=O)cc(-c4ccccc4Cl)oc23)[C@H](O)C1 [alvocidib]
Outline: as §1

[7] = compound: CN1CCc2c(c3ccccc3n2Cc2ccc(C(=O)NO)cc2)C1 [Tubastatin A]
Outline: as §1

[8] = compound: CNC(=O)C1=CC=CC=C1NC2=NC(=NC=C2Cl)NC3=C(C=C(C=C3)N4CCOCC4)OC
Outline: as §1

[9] = compound: CNc1nc(-c2ccc3c(N)n[nH]c3c2)cc(N2C[C@@H](C(=O)NC3CCCCC3)CC[C@H]2C)n1
Outline: as §1

[10] = compound: CC[C@H](C)N1C=C(C2=C(C=C(C=C21)C3=CN=C(C=C3)N4CCNCC4)C(=O)NCC5=C(C=C(NC5=O)C)C)C
Outline: as §1

[11] = compound: CC[C@H](C)[C@@H](C(=O)N[C@@H]([C@@H](C)O)C(=O)N[C@@H](CC(C)C)C(=O)[C@]1(CO1)C)NC(=O)[C@H]([C@@H](C)CC)N(C)C(=O)C [epoxomicin]
Outline: as §1

[12] = compound: CCn1cc(-c2ccnc3[nH]c(-c4cccc(CN(C)C)c4)cc23)c(-c2ccc(NC(=O)N(C)C)cc2)n1
Outline: as §1

[13] = compound: CN(C)CC(=O)Nc1ccc2[nH]c(=O)c3ccccc3c2c1
Outline: as §1

[14] = compound: CN1CCC(CNc2ccc3ncc(-c4cccc(OC(F)(F)F)c4)n3n2)CC1
Outline: as §1

[15] = compound: CNC(=O)c1ccc(Nc2ncc(C(F)(F)F)c(NCc3nccnc3N(C)S(C)(=O)=O)n2)cc1 [defactinib]
Outline: as §1

[16] = compound: COC(=O)[C@H](CCSC)NC(=O)C1=C(C=C(C=C1)NC[C@H](CS)N)C2=CC=CC=C2
Outline: as §1

[17] = compound: CN(CCOC1=CC=C(C=C1)C[C@H]2C(=O)NC(=O)S2)C3=CC=CC=N3 (racemic) [rosiglitazone]
Outline: as §1

[18] = compound: CNCc1ccc(-c2[nH]c3cc(F)cc4c3c2CCNC4=O)cc1 [rucaparib]
Outline: as §1

[19] = compound: COC(=O)N[C@@H](C)CNc1nccc(-c2cn(C(C)C)nc2-c2cc(Cl)cc(NS(C)(=O)=O)c2F)n1 [encorafenib]
Outline: as §1

Measured: log2 fold change

PNMT (UniProt P11086)
inactive: [1] -0.191 | [2] 0.044 | [3] -0.066 | [4] -0.318 | [5] -0.02 | [6] -0.315 | [7] 0.028 | [8] 0.107 | [9] 0.062

PM20D2 (UniProt Q8IYS1)
inactive: [2] -0.153 | [3] -0.079 | [4] -0.026 | [5] 0.09 | [7] -0.041 | [8] -0.016 | [9] 0.069

POLR3D (UniProt P05423)
active: [1] -0.394
inactive: [10] 0.107 | [11] -0.066 | [12] 0.032 | [13] 0.018 | [3] 0.61 | [14] -0.035 | [4] 0.264 | [5] -0.029 | [7] 1.53 | [8] -0.074 | [15] -0.027 | [9] 0.425 | [16] -0.08

POLR1B isoform 3 (UniProt Q9H9Y6)
inactive: [10] 0.173 | [11] -0.134 | [2] 0.027 | [12] 0.022 | [13] -0.064 | [3] 0.245 | [14] 0.028 | [4] -0.001 | [5] 0.125 | [6] 0.085 | [7] 0.098 | [8] -0.065 | [15] 0.022 | [9] 0.005 | [16] 0.014

PMS2CL (UniProt Q68D20)
inactive: [10] -0.126 | [11] 0.126

PPM1B isoform 2 (UniProt O75688)
inactive: [17] 0.04

POLR1E isoform 1 (UniProt Q9GZS1)
inactive: [1] 0.016 | [13] -0.043 | [3] 0.381 | [4] -0.054 | [15] 0.107 | [9] 0.162 | [16] 0.204

PLS3 (UniProt H7C4N2)
inactive: [11] -0.099 | [5] 0.065

POLR3H (UniProt Q9Y535)
inactive: [1] -0.099 | [10] 0.068 | [11] -0.054 | [2] -0.003 | [12] 0.016 | [13] 0.005 | [17] -0.002 | [3] -0.006 | [14] 0.019 | [4] 0.058 | [5] 0.072 | [6] -0.015 | [8] -0.024 | [15] -0.059 | [9] 0.05 | [16] -0.005

POLE2 (UniProt P56282)
inactive: [12] 0.025 | [14] 0.119

POLR3GL (UniProt Q9BT43)
inactive: [17] -0.002 | [5] -0.155

PMVK (UniProt Q15126)
inactive: [10] 0.069 | [11] 0.003 | [12] 0.142 | [13] 0.018 | [3] 0.036 | [14] 0.057 | [4] -0.021 | [5] -0.003 | [7] 0.229 | [8] -0.051 | [15] 0.02 | [9] -0.039 | [16] -0.368

PLEKHJ1 (UniProt Q9NW61)
inactive: [1] 0.114 | [11] -0.21 | [3] 0.214 | [4] -0.095 | [6] 0.026 | [9] 0.179

POLQ (UniProt O75417)
inactive: [10] -0.063 | [12] -0.269 | [17] -0.008 | [14] -0.161

PPFIA3 (UniProt O75145)
inactive: [11] 0.197 | [6] 0

PORCN (UniProt Q9H237)
inactive: [2] 0.098 | [13] -0.018 | [6] -0.015 | [8] 0.353 | [15] 0.138 | [16] 0.127

PLK1 (UniProt P53350)
active: [1] -2.06 | [8] -2.06
inactive: [10] 0.049 | [11] 0.044 | [12] 0.033 | [13] -0.016 | [3] -0.029 | [14] -0.068 | [4] 0.034 | [5] -0.223 | [7] -0.058 | [15] -0.165 | [18] 0.052 | [9] -0.008 | [19] 0.058 | [16] -0.013

POMGNT2 (UniProt Q8NAT1)
inactive: [1] -0.042 | [2] -0.036 | [12] 0.046 | [13] 0.115 | [17] -0.16 | [3] -0.018 | [14] 0.175 | [4] 0.127 | [5] -0.029 | [6] -0.067 | [8] -0.061 | [15] 0.035 | [9] 0.014 | [16] -0.009

POMT1 (UniProt Q9Y6A1)
inactive: [11] -0.028 | [2] -0.052 | [13] 0.028 | [3] 0.036 | [4] -0.014 | [7] -0.035 | [8] 0.064 | [15] -0.004 | [9] 0.031 | [16] 0.009

PLXNB1 (UniProt O43157)
inactive: [11] 0.044 | [5] 0.085

PODXL (UniProt O00592)
inactive: [12] -0.238 | [14] -0.259

POT1 (UniProt Q9NUX5)
inactive: [10] -0.058 | [11] 0.005 | [2] -0.091 | [17] 0.092 | [5] -0.174 | [7] -0.008 | [8] 0.013

PPIG (UniProt Q13427)
inactive: [1] -0.374 | [17] -0.356 | [3] -0.028 | [4] 0.081 | [9] -0.191

POLG (UniProt P54098)
inactive: [1] -0.068 | [10] -0.009 | [11] -0.064 | [2] -0.046 | [12] -0.051 | [13] -0.056 | [17] 0.084 | [3] -0.092 | [14] -0.11 | [4] 0.025 | [5] 0.05 | [6] -0.04 | [7] 0.055 | [8] 0.075 | [15] -0.034 | [9] -0.264 | [16] 0.056

Copied from the results shown (seven entries):
PORCN (UniProt Q9H237)
inactive: [2] 0.098 | [13] -0.018 | [6] -0.015 | [8] 0.353 | [15] 0.138 | [16] 0.127

PLK1 (UniProt P53350)
active: [1] -2.06 | [8] -2.06
inactive: [10] 0.049 | [11] 0.044 | [12] 0.033 | [13] -0.016 | [3] -0.029 | [14] -0.068 | [4] 0.034 | [5] -0.223 | [7] -0.058 | [15] -0.165 | [18] 0.052 | [9] -0.008 | [19] 0.058 | [16] -0.013

POMGNT2 (UniProt Q8NAT1)
inactive: [1] -0.042 | [2] -0.036 | [12] 0.046 | [13] 0.115 | [17] -0.16 | [3] -0.018 | [14] 0.175 | [4] 0.127 | [5] -0.029 | [6] -0.067 | [8] -0.061 | [15] 0.035 | [9] 0.014 | [16] -0.009

POMT1 (UniProt Q9Y6A1)
inactive: [11] -0.028 | [2] -0.052 | [13] 0.028 | [3] 0.036 | [4] -0.014 | [7] -0.035 | [8] 0.064 | [15] -0.004 | [9] 0.031 | [16] 0.009

PLXNB1 (UniProt O43157)
inactive: [11] 0.044 | [5] 0.085

PODXL (UniProt O00592)
inactive: [12] -0.238 | [14] -0.259

POT1 (UniProt Q9NUX5)
inactive: [10] -0.058 | [11] 0.005 | [2] -0.091 | [17] 0.092 | [5] -0.174 | [7] -0.008 | [8] 0.013

Remaining list, next part:

POLRMT (UniProt O00411)
inactive: [11] -0.031 | [13] 0.11 | [3] 0.22 | [4] 0.074 | [5] 0.005 | [15] 0.068 | [9] -0.037 | [16] 0.108

PPHLN1 isoform 3 (UniProt Q8NEY8)
inactive: [6] -0.059 | [7] 0.229

POM121C (UniProt A8CG34)
inactive: [10] 0.231 | [2] -0.143 | [17] -0.114 | [5] -0.204 | [8] 0.01

POLE (UniProt Q07864)
inactive: [12] 0.099 | [17] 0.13 | [14] -0.283 | [6] -0.057
